The text below walks through data of article PMC4250933.

Results are given in words; binding and its absence hold for the method and conditions named. Binding seen in cells or lysates may run through a third protein. These calls come from enrichment with a bait or labelling near it, and not all partners need be listed. Tags and fused reporters may be left off the sequences shown.

The target in the assay is T1, 6xHis-tagged Mdf1p (S. cerevisiae) (UniProt P25585).
T1 sequence: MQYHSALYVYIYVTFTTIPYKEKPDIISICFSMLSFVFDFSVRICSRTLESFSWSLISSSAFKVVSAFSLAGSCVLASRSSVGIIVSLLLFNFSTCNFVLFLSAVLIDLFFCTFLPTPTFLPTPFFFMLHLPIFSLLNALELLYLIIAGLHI
Put plainly: affinity purification with mass spectrometry; lysate of yeast overexpressing 6xHis-tagged Mdf1p precipitated with anti-His antibody and protein-G agarose; SDS-PAGE, silver stain, unique band against wild-type control analysed by MALDI-TOF/TOF; lysis buffer 50 mM Tris-HCl pH 7.5, 150 mM NaCl, 0.2% NP-40, 4°C.

B1: Snf1p (protein, UniProt P06782 1-633)
chain: MSSNNNTNTAPANANSSHHHHHHHHHHHHHGHGGSNSTLNNPKSSLADGAHIGNYQIVKTLGEGSFGKVKLAYHTTTGQKVALKIINKKVLAKSDMQGRIEREISYLRLLRHPHIIKLYDVIKSKDEIIMVIEYAGNELFDYIVQRDKMSEQEARRFFQQIISAVEYCHRHKIVHRDLKPENLLLDEHLNVKIADFGLSNIMTDGNFLKTSCGSPNYAAPEVISGKLYAGPEVDVWSCGVILYVMLCRRLPFDDESIPVLFKNISNGVYTLPKFLSPGAAGLIKRMLIVNPLNRISIHEIMQDDWFKVDLPEYLLPPDLKPHPEEENENNDSKKDGSSPDNDEIDDNLVNILSSTMGYEKDEIYESLESSEDTPAFNEIRDAYMLIKENKSLIKDMKANKSVSDELDTFLSQSPPTFQQQSKSHQKSQVDHETAKQHARRMASAITQQRTYHQSPFMDQYKEEDSTVSILPTSLPQIHRANMLAQGSPAASKISPLVTKKSKTRWHFGIRSRSYPLDVMGEIYIALKNLGAEWAKPSEEDLWTIKLRWKYDIGNKTNTNEKIPDLMKMVIQLFQIETNNYLVDFKFDGWESSYGDDTTVSNISEDEMSTFSAYPFLHLTTKLIMELAVNSQSN
Take B1: the binding entry is given as “binds”.
